Experimental findings from paper PMC5253665 are described below.

Protein sequences, listed by entry. Tags and fused reporters are not part of them. Residues count along the entry.
UniProt P29459, residues 23-219: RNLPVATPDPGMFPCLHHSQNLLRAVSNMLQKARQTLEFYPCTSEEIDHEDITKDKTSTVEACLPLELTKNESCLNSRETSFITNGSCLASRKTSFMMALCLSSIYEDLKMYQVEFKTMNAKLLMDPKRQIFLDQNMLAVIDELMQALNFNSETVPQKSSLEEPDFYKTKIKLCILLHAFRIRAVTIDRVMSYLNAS

Results are given in words; binding and its absence hold for the method and conditions named. Binding seen in cells or lysates may run through a third protein. Some binding calls cover weakened binding; strength is not graded here.

In the experiment the target is P35 subunit of IL-35 (human (endogenous in PDAC tumour tissue and primary PDAC cell lines)) (UniProt P29459). Kind of experiment: co-IP; endogenous proteins in lysates of PDAC tumour tissue (three patients) and of PDAC primary cell lines; immunoprecipitation with antibodies to P35, EBI3, P28 or P40, western blot; the supernatant left after immunoprecipitation was blotted too. In general terms: Immunoblotting shows a protein as a band on a membrane.

B1: EBV-induced gene 3 (EBI3) subunit of IL-35 (protein, UniProt Q14213 21-229)
chain: RKGPPAALTLPRVQCRASRYPIAVDCSWTLPPAPNSTSPVSFIATYRLGMAARGHSWPCLQQTPTSTSCTITDVQLFSMAPYVLNVTAVHPWGSSSSFVPFITEHIIKPDPPEGVRLSPLAERQLQVQWEPPGSWPFPEIFSLKYWIRYKRQGAARFHRVGPIEATSFILRAVRPRARYYVQVAAQDLTDYGELSDWSLPATATMSLGK
For the molecule B1, the binding result is reported as “binds”.
